Measurements from PMC9556925.
These are yes or no findings as the source states them, for the method shown. Binding seen in cells or lysates may run through a third protein. Some entries that bind do so weakly or less than the wild type. For part of these data: Where a sequence is shown, tags or fusion partners need not be part of it.

Chains of the proteins cited; added tags and fusions are not shown.
UniProt P35568: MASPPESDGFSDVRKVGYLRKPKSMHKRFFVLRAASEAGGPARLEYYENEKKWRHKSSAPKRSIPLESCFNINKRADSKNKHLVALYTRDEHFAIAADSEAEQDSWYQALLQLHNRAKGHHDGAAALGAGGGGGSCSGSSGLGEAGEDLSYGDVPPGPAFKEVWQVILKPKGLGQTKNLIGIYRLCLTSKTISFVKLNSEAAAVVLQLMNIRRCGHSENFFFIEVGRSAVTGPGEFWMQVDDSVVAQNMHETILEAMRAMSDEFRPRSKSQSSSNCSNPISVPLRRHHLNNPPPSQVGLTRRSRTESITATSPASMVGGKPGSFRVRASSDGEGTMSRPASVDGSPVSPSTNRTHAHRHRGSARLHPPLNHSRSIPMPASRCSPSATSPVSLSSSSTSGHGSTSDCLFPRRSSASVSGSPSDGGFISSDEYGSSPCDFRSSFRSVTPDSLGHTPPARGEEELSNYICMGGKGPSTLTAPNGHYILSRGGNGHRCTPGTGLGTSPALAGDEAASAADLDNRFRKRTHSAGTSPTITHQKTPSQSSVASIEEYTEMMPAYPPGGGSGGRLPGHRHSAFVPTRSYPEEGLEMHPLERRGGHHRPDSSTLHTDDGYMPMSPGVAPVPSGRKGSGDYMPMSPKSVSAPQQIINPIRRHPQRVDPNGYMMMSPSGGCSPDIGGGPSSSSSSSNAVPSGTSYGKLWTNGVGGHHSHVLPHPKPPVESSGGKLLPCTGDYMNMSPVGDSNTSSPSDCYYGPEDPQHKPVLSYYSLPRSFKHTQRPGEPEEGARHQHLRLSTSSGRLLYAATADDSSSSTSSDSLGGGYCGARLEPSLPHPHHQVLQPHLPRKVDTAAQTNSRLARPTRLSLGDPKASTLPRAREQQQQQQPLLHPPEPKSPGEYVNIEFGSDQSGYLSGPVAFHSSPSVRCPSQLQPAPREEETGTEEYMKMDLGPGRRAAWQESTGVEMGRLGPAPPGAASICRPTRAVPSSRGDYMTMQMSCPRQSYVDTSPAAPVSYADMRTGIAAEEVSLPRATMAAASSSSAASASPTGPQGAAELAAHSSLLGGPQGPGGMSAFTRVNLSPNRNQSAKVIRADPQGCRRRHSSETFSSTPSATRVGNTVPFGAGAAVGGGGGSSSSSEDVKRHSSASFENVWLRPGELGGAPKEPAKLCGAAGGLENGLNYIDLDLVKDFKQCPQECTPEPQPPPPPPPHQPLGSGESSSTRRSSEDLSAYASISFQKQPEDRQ
UniProt Q12778: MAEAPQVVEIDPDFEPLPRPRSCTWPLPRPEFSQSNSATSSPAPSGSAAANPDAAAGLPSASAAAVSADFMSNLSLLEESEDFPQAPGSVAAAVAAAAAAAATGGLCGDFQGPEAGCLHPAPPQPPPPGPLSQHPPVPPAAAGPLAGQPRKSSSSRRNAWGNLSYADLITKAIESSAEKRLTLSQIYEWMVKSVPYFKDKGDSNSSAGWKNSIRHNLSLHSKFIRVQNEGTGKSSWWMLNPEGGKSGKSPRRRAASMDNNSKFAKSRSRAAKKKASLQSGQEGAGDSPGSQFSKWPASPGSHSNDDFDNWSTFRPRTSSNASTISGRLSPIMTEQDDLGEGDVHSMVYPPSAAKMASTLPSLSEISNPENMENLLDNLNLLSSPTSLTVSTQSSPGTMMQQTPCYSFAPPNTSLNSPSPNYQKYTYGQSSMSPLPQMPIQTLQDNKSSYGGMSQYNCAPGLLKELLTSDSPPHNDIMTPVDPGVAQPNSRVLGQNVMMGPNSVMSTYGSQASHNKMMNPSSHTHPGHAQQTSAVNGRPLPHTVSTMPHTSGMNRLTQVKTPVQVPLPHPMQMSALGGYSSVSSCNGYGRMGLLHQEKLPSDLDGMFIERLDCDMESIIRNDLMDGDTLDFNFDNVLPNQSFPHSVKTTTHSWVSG

Experiments:
DCAF7-Flag (human) = target: T1, DCAF7-Flag (human) (UniProt P61962); experiment: co-IP; HepG2 cells transfected 24 h; DCAF7-Flag precipitated with EZview Red ANTI-Flag M2 from lysate (50 mM Tris-HCl pH 7.4, 150 mM NaCl, 1 mM EDTA, 1% Triton X-100), 2 h at 4°C; immunoblot; for endogenous IRS1 in the presence or absence of insulin
T1 sequence: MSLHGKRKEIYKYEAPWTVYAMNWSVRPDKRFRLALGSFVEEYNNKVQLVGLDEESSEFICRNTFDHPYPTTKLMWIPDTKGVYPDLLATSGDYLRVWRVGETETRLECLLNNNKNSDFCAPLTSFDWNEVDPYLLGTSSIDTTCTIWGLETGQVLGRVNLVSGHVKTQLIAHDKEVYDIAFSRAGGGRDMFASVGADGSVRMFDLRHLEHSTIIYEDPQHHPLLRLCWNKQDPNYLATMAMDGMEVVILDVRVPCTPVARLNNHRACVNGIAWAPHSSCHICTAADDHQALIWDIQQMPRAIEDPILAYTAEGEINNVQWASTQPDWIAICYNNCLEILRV

[1] = target: T2, DCAF7 (co-immunoprecipitation of Figure S4A) (human) (UniProt P61962); experiment: co-IP; coimmunoprecipitation of Figure S4A; cells, constructs and bait not given
T2 sequence: T1 sequence

binding (DCAF7-Flag (human))	binding [1]	Substance
binds		DYRK1A-GFP (from UniProt Q63470 1-763) (enzyme)
binds		endogenous IRS1 (from UniProt P35568 1-1242)
	no binding	forkhead box O1 (FOXO1) (from UniProt Q12778 1-655)
